Over roughly 1,700 compounds, “T2 sensor activation Q score (MG/GFP ratio z-score vs DMSO controls)” has its median near 0.3; the highest 2% begin near 1.9. This is one part of the list.
tested on: ppGalNAc-T2 sensor; assay: T2 sensor activation Q score (MG/GFP ratio z-score vs DMSO controls) (SD units); higher = more sensor activation (inhibition of ppGalNAc-T2 glycosylation); details: HEK293 sensor cells; 10 µM; 6 h
Procedure: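 Cells were treated with compound at 10 uM for 6 h, then MG/GFP ratio was read by flow cytometry (10,000 cells per well, duplicate wells). Q = (R - R_neg)/SD_neg relative to DMSO vehicle controls; the signal rises when the glycosyltransferase is inhibited.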

In order of falling “T2 sensor activation Q score” value:
1. Cc1nc(N)nc(Nc2ccc(C#N)cc2)c1Br  2.35
2. COc1ccc(Nc2cc(Cl)ccc2C(=O)O)cn1  2.25
3. O=C1c2ccccc2C(=O)N1c1ncn[nH]1  1.9
4. O=C(c1cccnc1)C1Cc2ccccc2C1=O (stereo not drawn)  1.8
5. COc1c(NC=O)c2c(c([N+](=O)[O-])c1OC)C(=O)OC2  1.65
6. CCOC(=O)c1ccc2c(c1)NCc1cccc(OC)c1O2  1.6
7. Cc1[nH]c(=S)[nH]c(=O)c1CCC1OCCO1  1.45
8. c1ccc(-c2nc(-c3nccc4ccccc34)oc2-c2ccccc2)cc1  1.4
9. COc1cc(NC(C)=O)c2ncccc2c1NC(C)=O  1.4
10. O=C(OCC(O)COC(=O)c1cccnc1)c1cccnc1  1.3
11. O=[N+]([O-])c1cccc(-c2nc3ccccc3s/c2=N/O)c1  1.25
12. CN(C)S(=O)(=O)N1C(=O)c2ccccc2C1=O  1.25
13. CCOC(=O)C(=O)C1C(=O)Nc2ccccc21 (stereo not drawn)  1.15
14. NC(=O)CCC(C(=O)O)N1C(=O)c2ccc(O)cc2C1=O (stereo not drawn)  1.15
15. C=C1SC(=Nc2c(C)cccc2Cl)N(C(=O)c2sc3ccccc3c2Cl)C12CCCCC2  1.1
16. Nc1c(Cl)cc(S(N)(=O)=O)cc1S(N)(=O)=O  1.1
17. NC(=O)N/N=C1\CC2CC1C1C=CCC21 (stereo not drawn)  1.05
18. CCN1CCCCC(=NO)C(=NO)CCCC1  1.05
19. Cc1cc(=O)c2cc(C(=O)c3ccccc3)ccc2[nH]1  1.05
20. Cc1cc(NC(=O)Nc2cccc3ccccc23)no1  1.05
21. O=[N+]([O-])c1ccccc1/C=C/C=N/N=C/c1ccccc1O  0.95
22. CCCOc1ccc(-c2nc(-c3ccc([N+](=O)[O-])cc3)cs2)cc1  0.85
23. NC(=O)Oc1cccc(OC(N)=O)c1  0.85
24. CCN(CC)CCNC(=O)c1ccc(NCN2C(=O)NC(c3ccccc3)(c3ccccc3)C2=O)cc1  0.8
25. COc1cc(OC)c2c(=O)cc(-c3cccnc3)oc2c1  0.8
26. CCOC(=O)C(=CNc1ccccc1Cl)C(=O)OCC  0.75
27. CCN(CC)CCN1C(=O)c2cccc3cc(N)cc(c23)C1=O  0.75
28. CC(C)(C)N1CC(OC(N)=O)C1  0.7
29. COc1cc(NC(=O)CCl)ccc(=O)c1  0.6
30. Cc1ccc(NC(=S)NC(=O)c2ccccc2)cc1NC(=S)NC(=O)c1ccccc1  0.6
31. CC(=O)Oc1ccc(OC(C)=O)c2c1CC1(C)OC1(C)C2 (stereo not drawn)  0.5
32. COc1ccc(NC2=NC(C)(CO)CS2)cc1 (stereo not drawn)  0.5
33. C/C(=N/O)[C@H]1CC[C@H]2[C@@H]3CC[C@@H]4C/C(=N\O)CC[C@]4(C)[C@H]3[C@@](C)(O)C[C@]12C  0.5
34. O=C(Nc1ccc(Nc2ccncc2)cc1)c1ccc([N+](=O)[O-])cc1  0.45
35. COc1c(NC(C)=O)c2ccccc2c2ccccc12  0.45
36. O=S1(=O)CSCS(=O)(=O)C1  0.3
37. Cc1ccc(N=Nc2c(O)c3ccccc3[nH]c2=O)c(S(=O)(=O)N(C)C)c1  0.3
38. NC(N)=N/N=C\c1c(Cl)cccc1Cl  0.25
39. O=C(O)C(Cc1ccccc1N(CCO)CCO)N1C(=O)c2ccccc2C1=O (stereo not drawn)  0.25
40. COc1ccc(OCC(O)CN2CCN(c3ccc(Cl)cc3)CC2)cc1 (stereo not drawn)  0.25
41. O=C1c2ccccc2C(=Cc2cccnc2)c2ccccc21  0.2
42. COc1ccccc1NC(=O)Oc1cccc(OC(=O)c2ccccc2)c1  0.2
43. CSc1nc(=S)cc(C)[nH]1  0.1
44. Cc1ccc(C)c(-n2c(-c3ccc(Br)cc3)csc2=NC(=O)c2ccccc2F)c1  0.05
45. Cc1ccc(N=Nc2ccc(C)cc2NC(=O)Nc2ccccc2F)cc1  0
46. c1ccc2c(c1)[nH]c1c3ccccc3sc21  0
47. CN1CCC(=C(c2ccc(Cl)cc2)c2ccccn2)CC1  -0.05
48. Cn1c(=O)c2c(nc(N3CCOCC3)n2C)n(C)c1=O  -0.1
49. Cc1ccc(S(=O)(=O)CCOC(=O)CNC(=O)OCc2ccccc2)cc1  -0.1
50. Cc1cccc2c1c1ccc3c(c1n2C)C(=O)C=CC3=O  -0.15
51. CSc1ccc(NC(=O)Nc2cc(C)ccn2)cc1  -0.2
52. CCCCN1C(=O)CC(C(=O)OCC)=C1C  -0.2
53. CCNc1ccccc1C(=O)O  -0.2
54. Nc1ccc(N=Nc2ccccc2)c2ccccc12  -0.25
55. Cc1[nH]c(=S)[nH]c(=O)c1Cc1c(O)ccc2ccccc12  -0.3
56. Nc1ccc(Oc2ccc(N)c([N+](=O)[O-])c2)cc1[N+](=O)[O-]  -0.3
57. CN(C)c1ccc(/C=N\NC(=O)c2cnc3ccccc3c2)cc1  -0.3
58. O=C(O)c1ccccc1-c1ccccc1C(=O)Nc1ccc2c(c1)[nH]c(=O)c1ccccc12  -0.35
59. O=c1[nH]cc(I)cc1I  -0.4
60. Cc1ccccc1NC(=S)Nc1ccccn1  -0.5
61. Cc1nc2ccc(N)nc2nc1C  -0.65
62. COc1ccc(NC2=CC(=S)NC(C)(C)C2)cc1  -0.7
63. Cc1ccc(C)c(C(=O)CCC(=O)O)c1  -0.7
64. O=C(Nc1ccc(F)cc1)OCCOc1ccc([N+](=O)[O-])cc1  -0.75
65. O=C(Nc1ccc(Nc2ccncc2)cc1)c1ccc(Nc2ccnc3ccc([N+](=O)[O-])cc23)cc1  -0.755
66. Nc1nc(Cl)nc2c1ncn2[C@@H]1O[C@H](CO)[C@@H](O)[C@@H]1F  -0.85
67. O=C(C=C=Nc1ccccc1)C(=O)N=C=Cc1ccccc1  -0.9
68. CC(C)(C)c1ccc(C(=O)N2CCOC23CCCCC3)cc1  -0.9
69. O=C(O)c1c[nH]n2c(=S)ncnc12  -0.95
70. CCOC(=O)Nc1csnn1  -1
71. C=CC1CN2CCC1CC2C(O)c1ccnc2ccc(OC)cc12 (stereo not drawn)  -1.25
72. Cc1cc(NC(=O)c2ccccc2)c(Cl)cc1N  -1.4
73. Cc1nc(SCC(=O)O)n[nH]1  -1.55
74. Cc1nn(-c2ccccc2)nc1C(=O)Nc1ccc2[nH]ncc2c1  -1.55
75. CC(C)(C)c1ccc(NS(=O)(=O)c2ccc(N)cc2)cc1  -1.55
76. CC(C)C[C@H](NC(=O)[C@H](CCc1ccccc1)NC(=O)CN1CCOCC1)C(=O)N[C@@H](Cc1ccccc1)C(=O)N[C@@H](CC(C)C)C(=O)[C@@]1(C)CO1  -1.65
77. CCN(CC)Cc1cc2[nH]c3c4ccc(Cl)cc4ncc3c2cc1OC  -2.1
78. Cc1ccc(NCCN(C)C)c2c(=O)c3cc(O)ccc3sc12  -2.35

Source: the supplement of paper PMC5407854, “Inhibitor of ppGalNAc-T3-mediated O-glycosylation blocks cancer cell invasiveness and lowers FGF23 levels” (eLife, 2017)
